Assay results taken from the supplement of paper PMC10849652.
The other results are listed elsewhere or left out.

The chains behind the UniProt entries cited, without tags or fusion partners. Where a name states a change or a piece, a line headed by the entry shows the natural chain unless it says otherwise.
UniProt Q9NWV4: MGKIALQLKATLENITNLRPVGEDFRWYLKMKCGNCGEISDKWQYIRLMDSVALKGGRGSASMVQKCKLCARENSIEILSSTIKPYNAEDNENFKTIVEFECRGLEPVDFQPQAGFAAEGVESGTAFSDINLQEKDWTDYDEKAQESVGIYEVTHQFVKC
UniProt O00273: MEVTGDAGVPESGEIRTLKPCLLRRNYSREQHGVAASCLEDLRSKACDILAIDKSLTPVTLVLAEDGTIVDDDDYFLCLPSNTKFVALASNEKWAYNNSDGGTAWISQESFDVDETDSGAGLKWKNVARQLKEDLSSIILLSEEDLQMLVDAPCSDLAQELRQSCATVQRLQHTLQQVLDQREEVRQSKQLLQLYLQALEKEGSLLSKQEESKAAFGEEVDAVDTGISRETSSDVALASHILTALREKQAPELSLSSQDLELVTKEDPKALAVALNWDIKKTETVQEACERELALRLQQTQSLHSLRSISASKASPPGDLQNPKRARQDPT
UniProt Q9H773: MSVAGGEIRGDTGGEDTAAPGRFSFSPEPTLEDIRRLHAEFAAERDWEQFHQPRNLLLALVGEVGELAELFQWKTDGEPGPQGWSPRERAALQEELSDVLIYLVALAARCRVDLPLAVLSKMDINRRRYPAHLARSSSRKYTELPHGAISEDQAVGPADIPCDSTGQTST
UniProt Q13561, whole entry, looked up: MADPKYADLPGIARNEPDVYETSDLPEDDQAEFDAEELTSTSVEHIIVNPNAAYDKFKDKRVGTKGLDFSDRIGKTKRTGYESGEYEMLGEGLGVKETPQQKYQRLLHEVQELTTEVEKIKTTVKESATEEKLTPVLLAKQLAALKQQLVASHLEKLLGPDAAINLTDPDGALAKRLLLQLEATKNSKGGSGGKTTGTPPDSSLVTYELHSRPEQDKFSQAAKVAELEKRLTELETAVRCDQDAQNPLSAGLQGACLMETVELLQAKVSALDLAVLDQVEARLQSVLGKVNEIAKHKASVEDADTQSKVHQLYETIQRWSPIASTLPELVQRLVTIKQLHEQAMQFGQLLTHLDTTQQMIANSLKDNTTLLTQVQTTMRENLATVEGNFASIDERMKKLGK
UniProt P61803: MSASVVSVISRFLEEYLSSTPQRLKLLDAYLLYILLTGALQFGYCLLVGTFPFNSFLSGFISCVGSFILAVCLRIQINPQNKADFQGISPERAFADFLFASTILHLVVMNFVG
UniProt P07108: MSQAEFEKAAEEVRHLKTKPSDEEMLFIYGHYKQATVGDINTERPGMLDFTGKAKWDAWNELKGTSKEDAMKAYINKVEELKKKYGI
UniProt Q96GG9: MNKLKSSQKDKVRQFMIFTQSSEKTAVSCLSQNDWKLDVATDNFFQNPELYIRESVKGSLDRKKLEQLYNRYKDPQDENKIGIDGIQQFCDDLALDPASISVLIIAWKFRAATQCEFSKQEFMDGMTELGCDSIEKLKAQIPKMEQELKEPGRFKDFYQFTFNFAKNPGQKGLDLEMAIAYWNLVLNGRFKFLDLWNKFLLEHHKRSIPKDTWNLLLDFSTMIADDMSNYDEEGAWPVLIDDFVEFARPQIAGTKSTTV
UniProt Q9NUI1: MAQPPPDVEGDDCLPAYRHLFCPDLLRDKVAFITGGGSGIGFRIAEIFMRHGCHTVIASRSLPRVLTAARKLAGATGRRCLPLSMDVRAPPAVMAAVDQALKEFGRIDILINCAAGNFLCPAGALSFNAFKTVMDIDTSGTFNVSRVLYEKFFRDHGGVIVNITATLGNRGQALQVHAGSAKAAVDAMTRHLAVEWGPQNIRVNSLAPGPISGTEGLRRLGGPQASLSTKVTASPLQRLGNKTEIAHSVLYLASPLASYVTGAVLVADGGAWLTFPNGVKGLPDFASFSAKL
UniProt Q9GZP9: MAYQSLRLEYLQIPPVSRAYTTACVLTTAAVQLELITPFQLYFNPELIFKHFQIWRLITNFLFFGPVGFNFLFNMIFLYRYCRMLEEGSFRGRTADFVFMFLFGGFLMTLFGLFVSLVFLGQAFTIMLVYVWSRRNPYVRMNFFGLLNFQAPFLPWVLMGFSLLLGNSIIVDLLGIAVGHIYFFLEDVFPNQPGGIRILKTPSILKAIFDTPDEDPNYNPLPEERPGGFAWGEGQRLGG
UniProt Q9BUQ8: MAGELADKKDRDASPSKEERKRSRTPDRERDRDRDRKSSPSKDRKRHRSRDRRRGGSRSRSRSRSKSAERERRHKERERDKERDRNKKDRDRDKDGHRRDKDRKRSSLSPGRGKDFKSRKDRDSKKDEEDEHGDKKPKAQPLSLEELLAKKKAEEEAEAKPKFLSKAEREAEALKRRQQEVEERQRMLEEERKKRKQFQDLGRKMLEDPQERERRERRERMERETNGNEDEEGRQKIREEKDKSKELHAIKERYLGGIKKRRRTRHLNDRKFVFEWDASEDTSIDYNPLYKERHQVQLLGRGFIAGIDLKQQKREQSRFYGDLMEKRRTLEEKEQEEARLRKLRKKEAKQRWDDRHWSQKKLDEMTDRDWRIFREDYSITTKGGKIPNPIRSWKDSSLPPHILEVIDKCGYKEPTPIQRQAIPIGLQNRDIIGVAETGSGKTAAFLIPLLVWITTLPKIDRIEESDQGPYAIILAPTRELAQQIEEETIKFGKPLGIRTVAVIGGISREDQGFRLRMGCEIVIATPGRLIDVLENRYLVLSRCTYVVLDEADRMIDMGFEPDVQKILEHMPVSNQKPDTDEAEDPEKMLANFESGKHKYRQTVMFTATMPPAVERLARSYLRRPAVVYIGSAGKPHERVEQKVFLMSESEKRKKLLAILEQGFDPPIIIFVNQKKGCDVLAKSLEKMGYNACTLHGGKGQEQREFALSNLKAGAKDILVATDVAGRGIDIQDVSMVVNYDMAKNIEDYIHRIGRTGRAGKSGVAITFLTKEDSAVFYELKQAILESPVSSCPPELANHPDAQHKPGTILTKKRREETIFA
UniProt O75064: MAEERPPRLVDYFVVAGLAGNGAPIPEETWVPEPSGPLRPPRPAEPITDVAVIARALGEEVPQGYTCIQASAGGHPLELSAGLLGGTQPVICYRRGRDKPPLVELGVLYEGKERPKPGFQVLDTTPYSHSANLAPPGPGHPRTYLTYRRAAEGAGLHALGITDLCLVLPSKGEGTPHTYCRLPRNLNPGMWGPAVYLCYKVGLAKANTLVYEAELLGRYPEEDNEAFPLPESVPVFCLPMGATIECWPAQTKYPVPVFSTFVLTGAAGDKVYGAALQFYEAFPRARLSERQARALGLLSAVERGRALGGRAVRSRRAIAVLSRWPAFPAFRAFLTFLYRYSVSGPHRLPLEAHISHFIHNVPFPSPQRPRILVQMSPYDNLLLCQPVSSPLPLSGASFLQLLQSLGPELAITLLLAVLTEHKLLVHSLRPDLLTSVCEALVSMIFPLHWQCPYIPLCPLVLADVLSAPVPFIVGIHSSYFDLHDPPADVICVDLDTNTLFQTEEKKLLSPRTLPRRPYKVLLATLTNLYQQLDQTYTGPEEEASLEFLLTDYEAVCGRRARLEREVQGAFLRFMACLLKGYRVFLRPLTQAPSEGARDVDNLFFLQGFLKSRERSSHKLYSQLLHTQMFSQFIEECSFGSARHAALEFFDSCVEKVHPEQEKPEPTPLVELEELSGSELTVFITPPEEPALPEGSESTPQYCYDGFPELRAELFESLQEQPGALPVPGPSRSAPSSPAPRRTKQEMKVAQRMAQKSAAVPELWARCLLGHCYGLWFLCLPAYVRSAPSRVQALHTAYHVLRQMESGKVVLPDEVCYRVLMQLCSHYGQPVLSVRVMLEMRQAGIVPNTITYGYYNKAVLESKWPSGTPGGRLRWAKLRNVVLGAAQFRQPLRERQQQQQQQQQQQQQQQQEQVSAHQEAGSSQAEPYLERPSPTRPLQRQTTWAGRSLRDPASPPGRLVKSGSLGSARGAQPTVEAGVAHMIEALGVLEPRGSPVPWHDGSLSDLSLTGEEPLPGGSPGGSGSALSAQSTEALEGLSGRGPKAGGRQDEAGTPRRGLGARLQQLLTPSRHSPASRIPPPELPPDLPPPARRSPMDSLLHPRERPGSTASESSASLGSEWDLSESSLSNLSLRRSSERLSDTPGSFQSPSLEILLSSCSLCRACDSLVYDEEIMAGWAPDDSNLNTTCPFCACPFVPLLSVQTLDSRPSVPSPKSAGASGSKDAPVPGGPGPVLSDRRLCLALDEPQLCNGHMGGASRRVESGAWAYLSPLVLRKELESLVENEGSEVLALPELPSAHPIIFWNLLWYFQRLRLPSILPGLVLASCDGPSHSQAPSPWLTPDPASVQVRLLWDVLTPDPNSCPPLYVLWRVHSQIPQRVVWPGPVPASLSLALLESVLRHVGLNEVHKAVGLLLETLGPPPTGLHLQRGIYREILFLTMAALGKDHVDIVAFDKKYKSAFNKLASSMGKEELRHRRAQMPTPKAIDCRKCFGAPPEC
UniProt O00148, whole entry, looked up: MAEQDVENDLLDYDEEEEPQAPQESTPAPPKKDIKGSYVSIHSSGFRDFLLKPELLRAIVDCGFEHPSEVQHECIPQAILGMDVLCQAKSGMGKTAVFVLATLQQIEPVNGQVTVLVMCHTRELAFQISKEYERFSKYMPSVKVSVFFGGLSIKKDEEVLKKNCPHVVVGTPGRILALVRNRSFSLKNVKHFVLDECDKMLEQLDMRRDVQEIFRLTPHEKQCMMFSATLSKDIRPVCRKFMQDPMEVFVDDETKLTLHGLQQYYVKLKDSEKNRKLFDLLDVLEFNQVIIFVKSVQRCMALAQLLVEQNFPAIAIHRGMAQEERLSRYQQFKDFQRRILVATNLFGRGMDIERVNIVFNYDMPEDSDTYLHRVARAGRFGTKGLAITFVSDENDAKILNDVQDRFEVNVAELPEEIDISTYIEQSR
UniProt O43583: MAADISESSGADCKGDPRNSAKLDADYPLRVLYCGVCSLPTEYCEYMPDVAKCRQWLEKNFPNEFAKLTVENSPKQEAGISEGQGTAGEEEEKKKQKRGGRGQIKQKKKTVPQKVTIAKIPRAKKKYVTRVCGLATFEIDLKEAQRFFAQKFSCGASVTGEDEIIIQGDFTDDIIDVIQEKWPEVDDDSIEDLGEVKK
UniProt Q7Z4W1: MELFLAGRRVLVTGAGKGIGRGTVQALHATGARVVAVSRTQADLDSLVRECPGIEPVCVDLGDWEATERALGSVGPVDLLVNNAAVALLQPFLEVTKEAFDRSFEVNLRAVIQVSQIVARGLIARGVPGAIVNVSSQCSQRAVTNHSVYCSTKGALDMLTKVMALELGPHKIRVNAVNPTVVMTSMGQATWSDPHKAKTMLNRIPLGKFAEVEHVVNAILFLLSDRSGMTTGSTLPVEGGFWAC
UniProt Q07973: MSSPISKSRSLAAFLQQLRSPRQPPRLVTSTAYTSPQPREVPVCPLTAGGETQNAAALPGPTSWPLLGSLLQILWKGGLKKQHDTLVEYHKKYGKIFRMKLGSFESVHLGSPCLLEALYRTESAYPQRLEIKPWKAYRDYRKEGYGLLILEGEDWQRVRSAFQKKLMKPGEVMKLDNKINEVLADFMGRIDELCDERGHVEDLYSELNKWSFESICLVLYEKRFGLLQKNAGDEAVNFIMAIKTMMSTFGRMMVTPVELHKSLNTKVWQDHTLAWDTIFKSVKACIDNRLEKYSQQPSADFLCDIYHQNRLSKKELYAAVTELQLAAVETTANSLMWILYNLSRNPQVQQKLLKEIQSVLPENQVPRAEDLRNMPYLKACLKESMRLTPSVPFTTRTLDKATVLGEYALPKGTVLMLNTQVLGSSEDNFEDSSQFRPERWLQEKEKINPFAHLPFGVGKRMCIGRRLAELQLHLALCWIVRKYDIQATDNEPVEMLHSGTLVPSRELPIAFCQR
UniProt O94830: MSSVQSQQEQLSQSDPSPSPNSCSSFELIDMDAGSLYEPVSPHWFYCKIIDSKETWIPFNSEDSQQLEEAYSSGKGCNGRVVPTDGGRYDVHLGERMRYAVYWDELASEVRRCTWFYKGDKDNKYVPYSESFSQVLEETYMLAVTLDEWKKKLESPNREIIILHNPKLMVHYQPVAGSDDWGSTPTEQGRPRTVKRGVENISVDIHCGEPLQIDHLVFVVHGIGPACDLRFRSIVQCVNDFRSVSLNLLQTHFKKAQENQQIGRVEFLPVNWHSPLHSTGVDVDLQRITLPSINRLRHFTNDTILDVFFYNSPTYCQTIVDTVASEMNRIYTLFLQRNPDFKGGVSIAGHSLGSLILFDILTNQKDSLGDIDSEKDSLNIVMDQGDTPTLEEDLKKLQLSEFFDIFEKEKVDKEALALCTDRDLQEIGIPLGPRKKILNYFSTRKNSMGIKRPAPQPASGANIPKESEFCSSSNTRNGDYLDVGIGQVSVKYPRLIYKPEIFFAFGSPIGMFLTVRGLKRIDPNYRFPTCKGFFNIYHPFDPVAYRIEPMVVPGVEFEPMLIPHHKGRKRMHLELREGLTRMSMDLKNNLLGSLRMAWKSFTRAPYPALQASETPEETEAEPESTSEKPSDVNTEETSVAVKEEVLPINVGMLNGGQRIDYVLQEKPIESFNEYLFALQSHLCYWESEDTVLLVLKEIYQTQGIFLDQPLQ

Tests used:
Experiment in all cases: log2 fold change, soluble protein after heating vs DMSO (PISA); higher = thermal stabilisation; K562 lysate, 10 uM; active = over 0.2 and 3.5 SD of the protein, either way, in both replicates (recomputed)
erlotinib = compound: C#Cc1cccc(Nc2ncnc3cc(OCCOC)c(OCCOC)cc23)c1 [erlotinib]
How it was run: (§1)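 K562 pellets were dounce-homogenised in PBS pH 7.4 with 1 mM MgCl2, and the crude extract at 1 mg/mL protein was treated with 10 μM compound for 30 min. Aliquots were heated for 3 min across 48°C-58°C, pooled, and brought to 0.5% NP-40 at 4°C; soluble protein was the supernatant after 21,000xg for 90 min. Soluble protein was quantified by TMTpro 16plex LC-MS/MS with channel sums equalised, and reported as log2 fold change in thermal stability against DMSO controls, with values from duplicates.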

[1] = compound: C/C(=N\NC(=O)C1=CC(=CC=C1)S(=O)(=O)N2CCOCC2)/C3=C(C=CC(=C3)Cl)O
How it was run: as §1

[2] = compound: C1=CC(=CC=C1C2=NC3=C(N2)C=C(C=C3)C(=O)N)OC4=CC=C(C=C4)Cl
How it was run: as §1

[3] = compound: C1=CC2=C(C=CC(=C2)/C=C\3/C(=O)NC(=NCC4=CC=CS4)S3)N=C1
How it was run: as §1

[4] = compound: C1=CC2=NC=CN=C2C=C1/C=C/3\C(=O)NC(=O)S3
How it was run: as §1

[5] = compound: C1=CC=C(C=C1)C2=NC(=C(N2)C3=CC=NC=C3)C4=CC(=C(C=C4)Cl)O
How it was run: as §1

[6] = compound: C1=CC=C2C(=C1)C3=NNC4=CC=CC(=C43)C2=O
How it was run: as §1

[7] = compound: C1CCN(C1)C(=O)NC2=CC=CC(=C2)NC3=NC=C(C(=N3)NCCC4=CN=CN4)Br
How it was run: as §1

[8] = compound: C1CN(CCC1(CC2=CC=C(C=C2)Cl)N)C3=NC=NC4=C3C=CN4
How it was run: as §1

IRAK-1-4 Inhibitor I = compound: C1COCCN1CCN2C3=CC=CC=C3N=C2NC(=O)C4=CC(=CC=C4)[N+](=O)[O-] [IRAK-1-4 Inhibitor I]
How it was run: as §1

ibrutinib = compound: C=CC(=O)N1CCC[C@@H](n2nc(-c3ccc(Oc4ccccc4)cc3)c3c(N)ncnc32)C1 [ibrutinib]
How it was run: as §1

[9] = compound: CC(=O)c1cnc2ccc(-c3cc(Cl)c(O)c(Cl)c3)nc2c1N[C@H]1CC[C@H](CN(C)C)CC1
How it was run: as §1

ralimetinib = compound: CC(C)(C)Cn1c(N)nc2ccc(-c3[nH]c(C(C)(C)C)nc3-c3ccc(F)cc3)nc21 [ralimetinib]
How it was run: as §1

[10] = compound: CC(C)(O)CC(=O)NCCn1ccc2ncnc(Nc3ccc(Oc4cccc(C(F)(F)F)c4)c(Cl)c3)c21
How it was run: as §1

[11] = compound: CC(C)C1=C2N=C(C=C(N2N=C1)NCC3=CC=CC=C3)NCCCCCCN
How it was run: as §1

[12] = compound: CC1=C(C(CC(=O)N1)C2=CC=C(C=C2)C(F)(F)F)C(=O)NC3=C(C=C4C(=C3)C=NN4)F
How it was run: as §1

[13] = compound: CC1=C(C2=C(C=C1)C(=O)C3=CC=CC=C3N2CCCN)C
How it was run: as §1

[14] = compound: CC1=C(C=C(C=C1)NC(=O)C2=CC(=CC=C2)C(C)(C)C#N)NC3=CC4=C(C=C3)N=CN(C4=O)C
How it was run: as §1

[15] = compound: CC1=C(C=C(C=C1)NC(=O)C2=CC(=CC=C2)N(C)C)NC(=O)C3=CC=C(C=C3)O
How it was run: as §1

[16] = compound: CC1=CC=C(C=C1)SC2=C3C=C(SC3=CN=C2)C(=O)N
How it was run: as §1

Measured: log2 fold change

CZIB (UniProt Q9NWV4)
inactive: erlotinib -0.005 | [1] -0.076 | [2] -0.035 | [3] -0.028 | [4] 0.015 | [5] -0.014 | [6] 0.054 | [7] 0.024 | [8] -0.024 | IRAK-1-4 Inhibitor I 0.009 | ibrutinib 0.002 | [9] 0.001 | ralimetinib -0.003 | [10] 0.026 | [11] -0.002 | [12] 0.001 | [13] 0.05 | [14] -0.008 | [15] 0.002 | [16] -0.053

DFFA (UniProt O00273)
inactive: erlotinib -0.013 | [1] -0.051 | [2] -0.02 | [3] 0.03 | [4] 0.022 | [5] -0.018 | [6] 0.031 | [7] -0.011 | [8] -0.007 | IRAK-1-4 Inhibitor I 0.019 | ibrutinib 0.04 | [9] -0.001 | ralimetinib 0.012 | [10] 0.046 | [11] -0.011 | [12] -0.035 | [13] 0.027 | [14] 0.018 | [15] -0.028 | [16] -0.03

DCTPP1 (UniProt Q9H773)
inactive: erlotinib -0.02 | [1] -0.017 | [2] 0.015 | [3] 0.014 | [4] 0.006 | [5] -0.011 | [6] -0.015 | [7] 0.058 | [8] 0.102 | IRAK-1-4 Inhibitor I 0.007 | ibrutinib 0.111 | [9] -0.028 | ralimetinib -0.002 | [10] -0.053 | [11] -0.043 | [12] -0.027 | [13] -0.034 | [14] 0.041 | [15] 0.005 | [16] 0.035

DCTN2 isoform 3 (UniProt Q13561)
inactive: erlotinib -0.01 | [1] -0.002 | [2] -0.015 | [3] 0.004 | [4] -0.006 | [5] -0.006 | [6] 0.026 | [7] 0.011 | [8] -0.001 | IRAK-1-4 Inhibitor I -0.012 | ibrutinib 0.083 | [9] 0 | ralimetinib -0.018 | [10] -0.007 | [11] -0.006 | [12] -0.036 | [13] -0.018 | [14] -0.002 | [15] -0.022 | [16] -0.007

DAD1 (UniProt P61803)
inactive: erlotinib -0.126 | [1] -0.244 | [2] 0.063 | [3] -0.266 | [4] -0.122 | [5] 0.012 | [6] 0.246 | [7] -0.055 | [8] -0.098 | IRAK-1-4 Inhibitor I -0.025 | ibrutinib 0.058 | [9] -0.02 | ralimetinib 0.071 | [10] 0.016 | [11] -0.072 | [12] 0.034 | [13] -0.18 | [14] 0.066 | [15] 0.048 | [16] 0.063

DBI isoform 5 (UniProt P07108)
inactive: erlotinib 0.025 | [1] -0.02 | [2] 0.011 | [3] 0.065 | [4] -0.028 | [5] 0.006 | [6] -0.046 | [7] 0.025 | [8] 0.106 | IRAK-1-4 Inhibitor I 0.006 | ibrutinib 0.067 | [9] -0.021 | ralimetinib -0.02 | [10] -0.037 | [11] -0.005 | [12] -0.021 | [13] 0.015 | [14] 0.082 | [15] 0.033 | [16] 0.056

DCUN1D1 (UniProt Q96GG9)
inactive: erlotinib -0.027 | [1] -0.01 | [2] -0.012 | [3] 0.013 | [4] 0.004 | [5] 0.005 | [6] 0.004 | [7] -0.002 | [8] 0.029 | IRAK-1-4 Inhibitor I -0.033 | ibrutinib 0.004 | [9] -0.001 | ralimetinib 0.009 | [10] 0.066 | [11] -0.006 | [12] -0.008 | [13] 0.054 | [14] 0.011 | [15] -0.002 | [16] -0.009

DECR2 (UniProt Q9NUI1)
inactive: erlotinib 0.082 | [1] 0.012 | [2] -0.069 | [3] -0.031 | [4] -0.01 | [5] -0.02 | [6] -0.045 | [7] -0.021 | [8] -0.006 | IRAK-1-4 Inhibitor I -0.034 | ibrutinib 0.018 | [9] -0.208 | ralimetinib -0.046 | [10] 0.045 | [11] -0.179 | [12] -0.062 | [13] -0.013 | [14] 0.061 | [15] -0.067 | [16] -0.152

DERL2 (UniProt Q9GZP9)
inactive: erlotinib 0.011 | [1] 0.176 | [2] -0.088 | [3] 0.077 | [4] 0.052 | [5] 0.14 | [6] -0.032 | [7] -0.07 | [8] 0.046 | IRAK-1-4 Inhibitor I 0.052 | ibrutinib 0.108 | [9] -0.009 | ralimetinib -0.018 | [10] -0.114 | [11] -0.036 | [12] -0.073 | [13] -0.096 | [14] -0.036 | [15] 0.023 | [16] -0.126

DDX23 (UniProt Q9BUQ8)
inactive: erlotinib 0.011 | [1] -0.043 | [2] 0.002 | [3] 0.004 | [4] 0.002 | [5] -0.012 | [6] -0.005 | [7] 0.004 | [8] 0.028 | IRAK-1-4 Inhibitor I -0.042 | ibrutinib 0.012 | [9] -0.005 | ralimetinib 0.039 | [10] 0.009 | [11] 0.034 | [12] -0.003 | [13] 0.002 | [14] -0.016 | [15] 0.027 | [16] 0.005

Two consecutive records already listed, quoted:
DBI isoform 5 (UniProt P07108)
inactive: erlotinib 0.025 | [1] -0.02 | [2] 0.011 | [3] 0.065 | [4] -0.028 | [5] 0.006 | [6] -0.046 | [7] 0.025 | [8] 0.106 | IRAK-1-4 Inhibitor I 0.006 | ibrutinib 0.067 | [9] -0.021 | ralimetinib -0.02 | [10] -0.037 | [11] -0.005 | [12] -0.021 | [13] 0.015 | [14] 0.082 | [15] 0.033 | [16] 0.056

DCUN1D1 (UniProt Q96GG9)
inactive: erlotinib -0.027 | [1] -0.01 | [2] -0.012 | [3] 0.013 | [4] 0.004 | [5] 0.005 | [6] 0.004 | [7] -0.002 | [8] 0.029 | IRAK-1-4 Inhibitor I -0.033 | ibrutinib 0.004 | [9] -0.001 | ralimetinib 0.009 | [10] 0.066 | [11] -0.006 | [12] -0.008 | [13] 0.054 | [14] 0.011 | [15] -0.002 | [16] -0.009

Further results follow.

DENND4B (UniProt O75064)
inactive: erlotinib 0.035 | [1] -0.032 | [2] -0.032 | [3] 0.031 | [4] -0.046 | [5] 0.035 | [6] -0.013 | [7] -0.035 | [8] 0.037 | IRAK-1-4 Inhibitor I -0.035 | ibrutinib -0.025 | [9] -0.036 | ralimetinib -0.012 | [10] -0.12 | [11] 0.021 | [12] 0.053 | [13] 0.101 | [14] -0.014 | [15] -0.044 | [16] -0.079

DDX39A (UniProt O00148)
inactive: erlotinib 0.023 | [1] -0.095 | [2] -0.045 | [3] -0.001 | [4] -0.003 | [5] 0.008 | [6] -0.026 | [7] -0.02 | [8] 0.009 | IRAK-1-4 Inhibitor I 0.014 | ibrutinib -0.005 | [9] 0.062 | ralimetinib -0.009 | [10] 0.029 | [11] 0.022 | [12] 0 | [13] 0.009 | [14] -0.032 | [15] -0.016 | [16] -0.004

DENR (UniProt O43583)
inactive: erlotinib -0.02 | [1] -0.011 | [2] 0.019 | [3] 0.008 | [4] 0.016 | [5] 0.009 | [6] -0.014 | [7] 0.027 | [8] 0.029 | IRAK-1-4 Inhibitor I -0.018 | ibrutinib 0.01 | [9] -0.002 | ralimetinib -0.035 | [10] 0.024 | [11] -0.045 | [12] -0.046 | [13] -0.004 | [14] -0.021 | [15] 0.005 | [16] 0.001

DCXR (UniProt Q7Z4W1)
inactive: erlotinib -0.022 | [1] 0.039 | [2] 0.01 | [3] -0.004 | [4] 0.001 | [5] -0.021 | [6] 0 | [7] -0.019 | [8] -0.001 | IRAK-1-4 Inhibitor I 0.011 | ibrutinib 0.003 | [9] -0.02 | ralimetinib 0.003 | [10] -0.003 | [11] 0.009 | [12] 0.011 | [13] 0.001 | [14] -0.05 | [15] -0.013 | [16] 0.007

CYP24A1 (UniProt Q07973)
inactive: erlotinib 0.015 | [1] 0.058 | [2] 0.148 | [3] -0.09 | [4] -0.083 | [5] -0.008 | [6] -0.135 | [7] -0.05 | [8] -0.011 | IRAK-1-4 Inhibitor I 0.07 | ibrutinib 0.01 | [9] -0.036 | ralimetinib -0.03 | [10] -0.159 | [11] 0.019 | [12] -0.05 | [13] -0.051 | [14] 0.183 | [15] 0.007 | [16] -0.067

DDHD2 (UniProt O94830)
inactive: erlotinib 0.017 | [1] -0.199 | [2] 0.017 | [3] 0.024 | [4] -0.001 | [5] -0.005 | [6] -0.018 | [7] 0.003 | [8] 0.025 | IRAK-1-4 Inhibitor I 0.012 | ibrutinib 0.005 | [9] -0.009 | ralimetinib 0.037 | [10] -0.016 | [11] -0.01 | [12] 0.023 | [13] -0.035 | [14] 0.026 | [15] 0.01 | [16] -0.008
